Measurements reported in PMC4449183, “Structural-Functional Analysis Reveals a Specific Domain Organization in Family GH20 Hexosaminidases” (PLoS ONE, 2015).
No constants are given. Whether binding was seen depends on the method and setting. Some entries that bind do so weakly or less than the wild type.

T1: Construct A (residues 40–528) of B. bifidum lacto-N-biosidase, GH20b-GH20-α (Bifidobacterium bifidum) (UniProt B3TLD6)
T1 sequence: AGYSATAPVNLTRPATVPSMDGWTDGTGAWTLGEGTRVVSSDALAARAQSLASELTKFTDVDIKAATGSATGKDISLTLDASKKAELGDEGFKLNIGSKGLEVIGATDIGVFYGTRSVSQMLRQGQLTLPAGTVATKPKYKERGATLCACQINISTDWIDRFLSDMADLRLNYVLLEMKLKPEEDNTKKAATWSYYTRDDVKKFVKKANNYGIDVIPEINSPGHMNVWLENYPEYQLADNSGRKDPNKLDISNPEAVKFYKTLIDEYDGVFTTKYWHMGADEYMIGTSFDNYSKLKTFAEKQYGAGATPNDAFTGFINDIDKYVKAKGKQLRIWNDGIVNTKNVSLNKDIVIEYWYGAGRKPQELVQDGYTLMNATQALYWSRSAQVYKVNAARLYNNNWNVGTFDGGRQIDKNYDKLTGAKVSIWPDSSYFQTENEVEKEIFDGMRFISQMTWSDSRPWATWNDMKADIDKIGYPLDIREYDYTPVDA

B1: Construct F (546–776) of B. bifidum lacto-N-biosidase, the single lectin domain (domain or fragment, Bifidobacterium bifidum, UniProt B3TLD6 546-776, looked up)
chain: LITTPDGYYQMKDTVSGKCLALFTGSKHLDVVTQVGARPELRNCADVSVGQDQRNTANERNTQKWQIRADKDGKYTISPALTQQRLAIATGNEQNIDLETHRPAAGTVAQFPADLVSDNALFTLTGHMGMSATVDSKTVNPASPSKITVKVRAASNANTGDVTVTPVVPEGWEIKPGSVSLKSIPAGKAAIAYFNVVNTTGTGDATVQFKLTNTKTGEELGTTSVALTGSL
B2: Bifidobacterium bifidum lacto-N-biosidase, full length protein (37–1064), without the signal peptide and membrane anchor regions (enzyme, UniProt B3TLD6 37-1064)
chain: DSAAGYSATAPVNLTRPATVPSMDGWTDGTGAWTLGEGTRVVSSDALAARAQSLASELTKFTDVDIKAATGSATGKDISLTLDASKKAELGDEGFKLNIGSKGLEVIGATDIGVFYGTRSVSQMLRQGQLTLPAGTVATKPKYKERGATLCACQINISTDWIDRFLSDMADLRLNYVLLEMKLKPEEDNTKKAATWSYYTRDDVKKFVKKANNYGIDVIPEINSPGHMNVWLENYPEYQLADNSGRKDPNKLDISNPEAVKFYKTLIDEYDGVFTTKYWHMGADEYMIGTSFDNYSKLKTFAEKQYGAGATPNDAFTGFINDIDKYVKAKGKQLRIWNDGIVNTKNVSLNKDIVIEYWYGAGRKPQELVQDGYTLMNATQALYWSRSAQVYKVNAARLYNNNWNVGTFDGGRQIDKNYDKLTGAKVSIWPDSSYFQTENEVEKEIFDGMRFISQMTWSDSRPWATWNDMKADIDKIGYPLDIREYDYTPVDAGIYDIPQLKSISKGPWELITTPDGYYQMKDTVSGKCLALFTGSKHLDVVTQVGARPELRNCADVSVGQDQRNTANERNTQKWQIRADKDGKYTISPALTQQRLAIATGNEQNIDLETHRPAAGTVAQFPADLVSDNALFTLTGHMGMSATVDSKTVNPASPSKITVKVRAASNANTGDVTVTPVVPEGWEIKPGSVSLKSIPAGKAAIAYFNVVNTTGTGDATVQFKLTNTKTGEELGTTSVALTGSLTKDVEASDYAASSQETTGEHAPVGNAFDKNANTFWHSKYSNPSANLPHWLAFKASPGEGNKIAAITHLYRQDKLNGPAKNVAVYVVAASDANSVADVTNWGEPVATAEFPYTKELQTIALPNTIPSGDVYVKFQINDAWGLTETSAGVTWAAVAELAATAKATPVELTEPEQPKDNPEVTETPEATGVTVSGDGVANGALSLKKGTTAQLTAKVAPDDADQAVTWASSDDKVVTVDKTGKVTAVAKGVAKVTATTANGKSASVTVTVTEDSEVPGPTGPTEPTKPGTE

What was measured:
[1] = biological target: T1, Construct A (residues 40–528) of B. bifidum lacto-N-biosidase, GH20b-GH20-α (Bifidobacterium bifidum); experiment: SEC; mixture of construct A (42 μM) with excess of construct F (245 μM) on Superdex 200 in buffer A, calibrated with protein standards; fractions analysed by SDS-PAGE and hydrolase activity; in duplicate; both purified
[2] = biological target: Bifidobacterium bifidum lacto-N-biosidase, full length protein (37–1064), without the signal peptide and membrane anchor regions (Bifidobacterium bifidum) (UniProt B3TLD6); experiment: SEC; single purified proteins on XK16/60 Superdex 200 in buffer A (Na2HPO4 20 mM, NaCl 150 mM, pH 7.5); both purified
[3] = biological target: Bifidobacterium bifidum lacto-N-biosidase, full length protein (37–1064), without the signal peptide and membrane anchor regions (Bifidobacterium bifidum) (UniProt B3TLD6); experiment: dynamic light scattering; Nano ZS Nanosizer, 632.8 nm, scattering angle 173 degrees, 25°C, protein in buffer A without dilution; both purified

Binder	binding [1]	binding [2]	binding [3]
B1	binds	–	–
B2	–	no binding	no binding
